# At least one structure is not confirmed: it was looked up by name or label, or the drawing left a doubt.
# What was measured:
# Itch = Itch phosphorylation by 2D gel electrophoresis and immunoblotting; assay type: cell-based, mice; conditions: activated (10') WT T cells
# Itch E3 ubiquitin ligase = assay: In vitro ubiquitination assay with Itch immunoprecipitated from stimulated T cells; assay type: biochemical, mice; conditions: Itch from anti-CD3+anti-CD28 stimulated T cells pretreated with inhibitor (SP600125 1 μM, 15 min)
# IL-4 mRNA = IL-4 mRNA expression in activated T cells; assay type: cell-based, mice
# [1] = test system: c-Jun and JunB polyubiquitination in 293T cells; assay: Jun ubiquitination in transfected 293T cells; assay type: cell-based; conditions: 1.0 μM, 24 hrs
# c-Jun and JunB = assay: Immunoblotting of Jun protein levels in activated T cells; assay type: cell-based, mice; conditions: WT CD4^+ T cells stimulated with anti-CD3 and anti-CD28, 24 hours
# Protocol: JNK1 was immunoprecipitated from 30 μg cell lysate with anti-JNK1 antibody (333, PharMingen) and its kinase activity measured by an immunecomplex kinase assay with GST-c-Jun(1-79) as a substrate (Xia et al. (2000) Proc Natl Acad Sci USA 97, 5243-5248). c-Jun phosphorylation was quantitated using a PhosphoImager (Bio-Rad) and gel loading was normalized by immunoblotting with a monoclonal antibody against JNK1/2 (666, PharMingen). ERK activation was examined by immunoblotting of gel separated whole cell extracts (100 μg) with an antibody specific for phospho-ERK (Cell Signaling). Polyclonal antibody against MEKK1 was prepared as described (Gallagher et al. (2002) J Biol Chem 277, 45785-45792). Antibodies against c-Jun, JunB, GATA3, c-Maf, NFATc1, NFATc2, p16, and p65 (RelA) were all from Santa Cruz Biotechnology. […] The levels of various proteins were quantitated by BioRad Quantity One software.
# The levels of Itch and actin were examined was measured by immunoblotting. […] Cells were chased with nonradioactive amino acids for the indicated times, at which they were lysed and Itch expression levels were determined by radioimmunoprecipitation. The levels of [^35S]-labeled Itch were quantitated using a PhosphoImager. […] JNK activity was measured by an immunecomplex kinase assay. Phosphorylated c-Jun was detected by autoradiography and quantitated using a PhosphoImager. […]
smiles,measurement,setting,value
Oc1c2ccccc2c2c3c(cccc13)N=N2 [SP600125],Itch phosphorylation,Itch,reduced
same,Itch autoubiquitination (self-ubiquitination),Itch E3 ubiquitin ligase,significantly reduced
same,c-Jun polyubiquitination by Itch (GST-c-Jun substrate),Itch E3 ubiquitin ligase,significantly reduced
same,IL-4 mRNA induction,IL-4 mRNA; CD4^+ T cells,increased
same,IL-4 mRNA expression,IL-4 mRNA; activated thymocytes,increased
same,extent of c-Jun and JunB polyubiquitination,[1],reduced the extent
same,c-Jun and JunB expression (in words),c-Jun and JunB,increased

# Reference: patent US20080213817A1, “Enhancement of Th2-Dependent and Inflammatory Response” (priority 2004, published 2008)
